Test results: patent US20150183820A1

B1: M-PG19 (designed binder)
chain: MDTYKLILNGKTLKGETTTEAVDAATAEKVFKHYANEHGVHGHWTYDPETKTFTVTE
B2: M-PG07 (designed binder)
chain: MDTYKLILNGKTLKGETTTEAVDAATAEKVFKQYANEHGVDGEWTYDPETKTFTVTE

Tests used:
[1] = biological target: Fc region of human immunoglobulin (human); test: SPR, KD at each pH standardised by KD at pH 7.4, human Fc immobilised
[2] = biological target: Fc region of human immunoglobulin (human); test: SPR, KD from 1:1 Langmuir fit at each pH, human Fc immobilised; plotted as 1/KD against pH

| Binder | binding [1] | binding [2] |
| --- | --- | --- |
| B1 | binds | binds |
| B2 | binds | binds |

No constants are given. Whether binding was seen depends on the method and setting. Binding calls can cover weak binding; strength is not graded here.
